According to PubChem BioAssay AID1259354 (Paczesny and Yang Labs, IUPUI and University of Michigan, 2018):
Hit rate of the full screen: of about 78,000 compounds, about 1,800 (2.3%) were called active. The inconclusive results got no clear call from the source; some entries with a clear call stand among them for comparison. Cut-off read from the data, not from the text of the source: active = inhibition above about 30%; inconclusive = mostly about 10% to 28%; inactive = weaker than that.

Protein sequences, listed by entry. Tags and fused reporters are not part of them. Lines headed by an entry give the natural chain unless they say otherwise; changes in a name come on top.
UniProt Q01638: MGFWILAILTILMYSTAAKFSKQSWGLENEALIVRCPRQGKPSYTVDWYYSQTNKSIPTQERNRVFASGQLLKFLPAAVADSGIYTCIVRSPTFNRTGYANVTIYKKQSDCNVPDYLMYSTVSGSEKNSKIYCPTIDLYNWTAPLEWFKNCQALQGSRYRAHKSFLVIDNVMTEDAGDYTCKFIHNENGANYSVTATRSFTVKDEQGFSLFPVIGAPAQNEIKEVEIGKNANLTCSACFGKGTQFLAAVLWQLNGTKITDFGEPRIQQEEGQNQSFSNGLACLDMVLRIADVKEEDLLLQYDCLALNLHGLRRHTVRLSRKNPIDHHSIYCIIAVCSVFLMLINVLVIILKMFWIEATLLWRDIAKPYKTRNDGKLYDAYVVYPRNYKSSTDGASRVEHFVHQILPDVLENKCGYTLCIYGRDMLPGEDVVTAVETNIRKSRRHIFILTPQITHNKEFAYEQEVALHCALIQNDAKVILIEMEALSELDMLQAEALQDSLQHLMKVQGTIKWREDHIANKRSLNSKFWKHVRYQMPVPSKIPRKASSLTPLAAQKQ

Target: Interleukin-1 receptor-like 1 (Homo sapiens) (UniProt Q01638)
Assay: blocks human ST2 binding to IL-33, primary screen, biochemical, AlphaLISA (AID 1259354)
Conditions: AlphaLISA ST2-Fc/biotin-IL-33 interaction, 1 h; at 17 µM, active compounds read high

Structure (SMILES) | inhibition
Cc1nc(C(C)C)cc(N2CCC(C(O)c3nccn3C)CC2)n1 (stereo not given) | inactive
CCOC(=O)C1=C(C)NC2=C(C(=O)C(C(=O)OC)C(C)C2)C1c1cccc(Br)c1 (stereo not given) | inactive
CCn1c2ccccc2c2cc(/C=C/[N+](=O)[O-])ccc21 | active: 38%
NC(=O)CSC1=Nc2ccccc2C2=NC(Cc3c[nH]c4ccccc34)C(=O)N12 (stereo not given) | inconclusive: 13%
CC(C)COc1ccc2c(c1)c1c3c(nccn32)CCC1 | active: 38%
N#CNC1=Nc2ccccc2CCC1 | inconclusive: 10%
CCSc1nc2c(c(=O)[nH]1)C(c1cc(OC)c(OC)c(OC)c1)C1=C(CC(C)(C)CC1=O)N2 (stereo not given) | inactive
COc1ccc(OC)c(S(=O)(=O)Nc2cccc(C(=O)O)c2)c1 | inactive
COc1ccccc1CN1C(=O)COC[C@@H]1[C@H](O)c1ccc(NC(=O)c2cccc(C#N)c2)cc1 | inconclusive: 21%
COc1cccc(CCNC(=O)c2cc3n(n2)CCCNC3)c1OC | inactive
COc1ccc(C2C3CCCC=C3C(C#N)=C(N)C2(C#N)C#N)cc1OC (stereo not given) | inconclusive: 10%
CN1CCN(c2nc3c(c(=O)n(C)c(=O)n3C)n2Cc2cccc(Cl)c2)CC1 | inconclusive: 18%
CCCc1nc2nc[nH]n2c(=O)c1NC(=O)NCCc1ccccc1 | inactive
CCN(Cc1nccn1C)C(=O)c1ccc(NC(C)c2cnn(C)c2)nc1 (stereo not given) | inactive
Cc1ccnc(NC(c2ccc(N(C)C)cc2)c2ccc3cccnc3c2O)c1 (stereo not given) | active: 32%
CC1(C)CC(=O)C2=C(C1)Nc1cc(C(=O)c3ccccc3)ccc1NC2c1ccc(O)cc1 (stereo not given) | inconclusive: 16%
NS(=O)(=O)c1ccc(CCNC(=O)CCC(=O)N2CC3CCCN3c3ccccc32)cc1 (stereo not given) | inconclusive: 11%
CCOc1ccc(C2C3=C(CCCC3=O)Nc3nc(SCC)[nH]c(=O)c32)cc1 (stereo not given) | inactive
C=CCOC(=O)C1=C(C)N=C2SCCC(=O)N2C1c1ccc(C)cc1 (stereo not given) | inconclusive: 25%
CC1(C)CC(=O)c2sc(NC(=O)c3sc4ccccc4c3Cl)nc2C1 | inactive
O=C(NC(Cn1ccnc1)c1ccccc1)c1cnn2c1CCCC2 (stereo not given) | inconclusive: 18%
O=C(c1ccc(Br)o1)N1CCN=C1SCc1cccnc1 | inconclusive: 12%
O=C(Oc1ccccc1)c1cc2cc(Cl)cc(Cl)c2oc1=O | inactive
CCOC(=O)CSc1cc(C(=O)O)c2ccccc2n1 | inactive

Structure (SMILES) | inhibition
Cc1nc(SCC(=O)N2CCC(C)CC2)c2c(=O)n(C)c(=O)n(C)c2n1 | inactive
CN(C)c1cccc(C(=O)N2CCC(N3CCC(C(=O)NC4CC4)CC3)CC2)c1 | inconclusive: 10%
CN1CCN(c2ccc(C(=O)c3ccc(Br)cc3)cc2[N+](=O)[O-])CC1 | inconclusive: 14%
CN(C)C(=O)c1cncc(-c2cc(NCc3ccncc3)nc3[nH]ccc23)n1 | inconclusive: 24%
N/C(=N/OC(=O)COc1ccc(Cl)cc1Cl)c1ccccn1 | inconclusive: 19%
CCC(CC)n1ncc(C)c1NC(=O)c1cc(C)nc(C)n1 | inactive
Cn1c2ccccc2c2nc3ccccc3nc21 | inconclusive: 27%
Cc1cc(C)n(-c2cccc(-c3nccn3C(C)c3ncnn3C)c2)n1 (stereo not given) | inactive
Cc1ccc(-c2nc3cccc(C)n3c2Nc2ccccc2)o1 | inactive
Cc1ccc(-c2noc([C@@H]3C[C@H](NS(=O)(=O)c4ccccc4)CN3C)n2)cc1 | inconclusive: 27%
O=S(=O)(NC1CCCCC1)c1cccc2nsnc12 | inconclusive: 14%
Cc1ccc(CSC2=NCCN2C(=O)c2cc3ccccc3o2)cc1 | inconclusive: 16%
Cc1cccc(C)c1NC(=O)C1(NC(=O)c2ccn[nH]2)CCCCC1 | inconclusive: 10%
COc1ccc(OC)c(C2C3=C(CCCC3=O)Nc3nc(SCc4ccccc4)[nH]c(=O)c32)c1 (stereo not given) | inconclusive: 11%
O=C(Nc1ccnn1C1CCN(Cc2cccn2-c2nccs2)CC1)c1cccnc1 | inconclusive: 12%
N/C(=N/OC(=O)c1ccc2c(c1)OCO2)c1ccc(Cl)cc1 | inactive
CN(Cc1cccc(C(=O)Nc2ccc(F)cc2F)c1)Cc1ccno1 | inconclusive: 10%
COC(=O)c1[nH]c2ccc(Br)cc2c1NC(=O)CN1CCCCC1 | inactive
CCc1n[n+](CC(=O)c2ccccc2)c(N)s1 | inconclusive: 25%
O=C1C=C(Nc2ccc(O)cc2)C(=O)c2ccccc21 | active: 42%
CCCC[C@@]1(C2CCCC2)Cc2cc(OCC(=O)O)c(Cl)c(Cl)c2C1=O | inconclusive: 11%
CS(=O)(=O)Nc1ccc([C@@H](O)[C@H]2COCC(=O)N2Cc2ccccc2)cc1 | inconclusive: 10%
C=CCNc1nnc(-c2ccc(Cl)cc2)s1 | inconclusive: 12%
Cc1ccc2nc(CCCNC(=O)c3ccc(C4CCCO4)s3)oc2c1 (stereo not given) | inconclusive: 14%

Structure (SMILES) | inhibition
Cn1c(SCC(=O)Nc2cccc(F)c2)nc2c([nH]c3ccccc32)c1=O | inconclusive: 12%
COc1ccc(/C=C/C(=O)N2CCCC(c3nc(SCc4cccnc4)ncc3C)C2)cc1OC (stereo not given) | inactive
COc1ccc(N2CCN(CC(O)COc3ccccc3[N+](=O)[O-])CC2)cc1 (stereo not given) | inconclusive: 16%
COc1ccc(C2CC(=O)N3CN(c4ccc(C)cc4)CSC3=C2C#N)cc1 (stereo not given) | inconclusive: 15%
N#Cc1c(-n2ncnc2-c2ccc([N+](=O)[O-])cc2)sc2c1CCCC2 | inconclusive: 24%
CCCn1ncc(C(=O)NCCN2CCc3ccccc3C2)c1C | inconclusive: 10%
O=c1[nH]cccc1-c1cnc2ccccc2c1 | inconclusive: 13%
CC1=CC(=O)CC2C1(C)CCC(C)C2(C)CC/C(C)=C/C(=O)O (stereo not given) | inactive
CCN1CCN(C2=NC(=O)/C(=C/c3ccc(N(C)C)cc3)S2)CC1 | inconclusive: 24%
CN(C)Cc1cn([C@H]2CO[C@H]3[C@@H]2OC[C@H]3O)nn1 | inconclusive: 16%
O[C@@H]1CN(Cc2ccncc2Cl)CC[C@H]1c1ccc2ccccc2c1 | inactive
CCCS(=O)(=O)N1CCCC(C(=O)NCCN2CCCCCC2)C1 (stereo not given) | inconclusive: 12%
COc1ccc(C2CC(=O)C3=C(C2)Nc2ccccc2NC3c2ccc3ccccc3c2)cc1 (stereo not given) | inconclusive: 12%
CCc1c(C)sc(NC(=O)CCCn2cnc([N+](=O)[O-])n2)c1C#N | inconclusive: 10%
CCN(CC)C(=O)CC[C@H]1CNC(=O)[C@@H]2[C@@H](CCN2C2CCOCC2)N1C | inconclusive: 10%
CCOc1cccc(OCCOCCn2ccnc2)c1 | inconclusive: 14%
COc1ccc(NS(=O)(=O)c2ccc(NC(=O)c3cccc([N+](=O)[O-])c3)cc2)cc1 | inconclusive: 12%
CCc1nc2cccnc2n1C1CCN(S(=O)(=O)c2ccc(Cl)cc2)CC1 | inconclusive: 16%
CCCOc1cccc(C(=O)Nc2ccc(C)cc2[N+](=O)[O-])c1 | active: 32%
CCOc1ccccc1N(C)S(=O)(=O)c1cccc2cccnc12 | inconclusive: 15%
COc1ccc(-c2nc3cc(C)ccc3o2)cc1N | inconclusive: 17%
Cc1ccc(NC(=O)c2ccc3c(c2)OCCO3)c([N+](=O)[O-])c1 | inconclusive: 14%
CN(CCCSc1ccccc1)Cc1ccc(C(F)(F)F)nc1 | inconclusive: 17%
CCc1[nH]c2c(CNC(=O)C3CCOCC3)cc(C)cc2c1C | inactive

Pulled by compound from the entries so far:
Structure (SMILES) | inhibition
CCn1c2ccccc2c2cc(/C=C/[N+](=O)[O-])ccc21 | active: 38%
Cc1cc(C)n(-c2cccc(-c3nccn3C(C)c3ncnn3C)c2)n1 (stereo not given) | inactive
CCOc1cccc(OCCOCCn2ccnc2)c1 | inconclusive: 14%
CCC(CC)n1ncc(C)c1NC(=O)c1cc(C)nc(C)n1 | inactive

(further entries)

Structure (SMILES) | inhibition
O=C(NCCOC(=O)C1COc2ccccc2O1)c1ccncc1 (stereo not given) | inactive
CCOc1cc(CN2CCC(C(=O)NCc3ccc(OC)cc3)CC2)ccc1O | inactive
COCc1cc(C[C@H]2CNCC[C@H]2CC(=O)N2CCC(n3c(=O)[nH]c4ccccc43)CC2)no1 | inconclusive: 16%
CCOC(=O)CCSc1nc(C)c2cc(C)ccc2n1 | inactive
COc1ccc(C2CC(=O)N3CN(c4ccc(C)c(Cl)c4)CSC3=C2C#N)cc1 (stereo not given) | inconclusive: 16%
O=C(Nc1ccc(Br)cn1)c1ccc(-c2ccc(Cl)cc2)o1 | inconclusive: 12%
O=C(NCC1(O)CCCNCC1)c1cc2ccccc2[nH]c1=O (stereo not given) | inconclusive: 27%
COc1cc(C2C(C#N)=C(N)OC(C)=C2C(C)=O)c([N+](=O)[O-])cc1OC (stereo not given) | inconclusive: 28%
CC(=O)C1C(=O)CC(C)(O)C(C(C)=O)C1c1ccc(C)cc1 (stereo not given) | inconclusive: 12%
CC(C)C1CN(C(=O)c2ccc(N3CCCC3=O)cc2)CCCN1CC1CC1 (stereo not given) | inactive
Oc1ccc(Br)cc1CN1CCC(N2CCCCCC2)CC1 | inconclusive: 15%
NC(=O)COc1ccccc1C(=O)NC12CC3CC(CC(C3)C1)C2 | inconclusive: 12%
CCCS(=O)(=O)N1CCCC(C(=O)NCCCN2CC(C)CC(C)C2)C1 (stereo not given) | inconclusive: 11%
N#Cc1c(-c2ccccc2)c(C#N)c2nc3ccccc3n2c1N | active: 32%
CCn1c(Br)nc2c1c(=O)n(C)c(=O)n2C | inactive
O[C@H]1[C@H](NCC2CCCCC2)[C@H]2CO[C@H](O2)[C@@H]1N1CCOCC1 | inconclusive: 13%
CC1=C(C(=O)OC2CCCC2)C(c2cccc(OCc3ccccc3)c2)NC(=O)N1 (stereo not given) | inactive
CN(C)C(C(=O)N1CC(c2cccnc2)C1)c1ccccc1F (stereo not given) | inactive
COc1cccc(Cn2c(CNS(=O)(=O)c3ccc(F)cc3)nc3cccnc32)c1 | inconclusive: 16%
CCN(CC)C(=O)c1ccccc1Br | inactive
CCN(CC)CCCC(C)Nc1ccnc2cc(Cl)ccc12 (stereo not given) | inconclusive: 17%
CCN1C(=O)C(O)(CC(=O)c2ccc(OC)cc2OC)c2ccccc21 (stereo not given) | inconclusive: 11%
CC(NC(=O)C1c2ccccc2-c2ccccc21)c1nnc2n1CCNCC2 (stereo not given) | inconclusive: 14%

Three entries from above in a different format.
Structure (SMILES)	inhibition
CCOC(=O)CCSc1nc(C)c2cc(C)ccc2n1	inactive
COc1ccc(C2CC(=O)N3CN(c4ccc(C)c(Cl)c4)CSC3=C2C#N)cc1 (stereo not given)	inconclusive: 16%
O=C(Nc1ccc(Br)cn1)c1ccc(-c2ccc(Cl)cc2)o1	inconclusive: 12%
